Reference: PubChem BioAssay AID2685 (National Center for Advancing Translational Sciences (NCATS), 2010)
The list shows a part of the results. Further columns of the screen follow, without active or inactive calls. Most of these compounds were active or inconclusive in the main read-out, so they are no random draw. Potencies come from curve fits of mixed quality, noted in brackets.

Test: qHTS Assay for Lipid Storage Modulators in Drosophila S3 Cells;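 on cell number change: cells counted by Cell Tracker Red CMTPX staining in the red channel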
Conditions: BODIPY lipid droplet fluorescence, 18-24 h; for cell number change: measured here: cell count max response, cells fed with added oleic acid
Procedure, shortened: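 Drosophila S3 cells got compounds at several concentrations plus oleic acid (400 uM solution). Laser-scanning cytometry with 488 nm excitation read lipid droplets at 500-530 nm and cells at 575-640 nm. Percent activity was relative to 20 uM Triacsin C.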

[1] = measured here: lipid fluorescence (Fed channel) AC50, cells fed with added oleic acid
[2] = measured here: cell number channel AC50, cells fed with added oleic acid

## O=C(COC(=O)/C=C/c1ccccc1F)Nc1nnc(-c2ccccc2)o1
  cell number change: 60.5%

## Cc1nc2[nH]c(=O)c3c(n2n1)NC1=C(C(=O)CC(C)(C)C1)C3c1ccccc1 (stereo unspecified)
[1]
  AC50: 6.51 µM [falling, partial curve]

## Cc1c(NC(=O)C(C)OC(=O)CCOc2ccccc2)c(=O)n(-c2ccccc2)n1C (stereo unspecified)
  cell number change: -19.5%
[2]
  AC50: 0.731 µM [falling, full curve, poor fit]
[1]
  AC50: 0.146 µM [falling, full curve]

## Cc1ccc(NC(=O)c2nc[nH]c2C(=O)N[C@@H](C)c2ccccc2)cc1
  cell number change: -34.5%
[1]
  AC50: 0.92 µM [falling, full curve, poor fit]

## Cc1cc(C)cc(NC(=O)COC(=O)Cc2ccccc2F)c1
  cell number change: -40.9%
[2]
  AC50: 29.1 µM [falling, single point]
[1]
  AC50: 0.731 µM [falling, single point]

## CC(C)C(=O)Nc1ccc(N2CCCC2)c(Cl)c1
  cell number change: 28.4%
[1]
  AC50: 29.1 µM [rising, single point]

## Cc1cc(=O)c(C(=O)Nc2cccc(N3CCCC3=O)c2)nn1-c1ccccc1Cl
  cell number change: -23.1%
[2]
  AC50: 0.103 µM [rising, full curve, poor fit]
[1]
  AC50: 0.092 µM [rising, full curve, poor fit]

## CCCS(=O)(=O)c1c(S(=O)(=O)CCC)c2c(N)cccn2c1C(=O)c1ccc(Br)cc1
  cell number change: -16.8%
[1]
  AC50: 29.1 µM [falling, single point]

## CCOC(=O)c1[nH]c(C)c(C(=O)Nc2ccc(C)c(C)c2)c1C
  cell number change: 15.8%

## N#C/C(=C/c1ccc(Oc2ccc([N+](=O)[O-])cn2)cc1)C(=O)N1CCOCC1
[1]
  AC50: 25.9 µM [falling, partial curve, poor fit]

## CCCCSc1nc(C)c(CC(=O)OC)c(=O)[nH]1
  cell number change: 15.4%
[1]
  AC50: 29.1 µM [rising, single point]

## Cc1ccnc(NS(=O)(=O)c2ccc(NC(=O)/C=C/c3cccs3)cc2)n1
  cell number change: 24.2%

## O=C(COC(=O)C(c1ccccc1)c1ccccc1)NCc1ccco1
  cell number change: 56.3%
[2]
  AC50: 29.1 µM [rising, single point]

## c1ccc(-n2ncc3c(NCCCN4CCOCC4)ncnc32)cc1
  cell number change: -3.96%
[2]
  AC50: 6.51 µM [falling, single point]

## CC(C)CNC(=O)CC(c1ccccc1)c1ccccc1
  cell number change: -40.8%
[2]
  AC50: 29.1 µM [falling, single point]

## COC(=O)C1=C(C(=O)OC)SC(=C2C(=S)C(C)(C)N(C(=O)C(C)C)c3ccccc32)S1
  cell number change: -87.8%
[2]
  AC50: 5.17 µM [falling, full curve]
[1]
  AC50: 18.4 µM [falling, single point]

## ON/C=N/C(=S)Nc1ncc(C(F)(F)F)cc1Cl
  cell number change: -10.6%
[2]
  AC50: 2.31 µM [falling, partial curve, poor fit]

## O=C(N/N=C/c1cccc(OCc2ccccc2)c1)c1ccc(Br)o1
  cell number change: -16.8%
[1]
  AC50: 6.51 µM [falling, single point]

## CC(=O)c1ccc(NC(=O)CSc2ccsc2[N+](=O)[O-])cc1
  cell number change: 47.6%
[2]
  AC50: 18.4 µM [rising, single point]
[1]
  AC50: 20.6 µM [rising, single point]

## Cc1cc(C)c(C(=O)/C=C/C=C/c2ccccc2)c(=O)[nH]1
  cell number change: -31.6%
[2]
  AC50: 25.9 µM [falling, single point]

## Cc1ccc(C(=O)OCC(=O)Nc2cc(C(C)(C)C)nn2-c2ccccc2)c(O)c1
  cell number change: -50.9%
[2]
  AC50: 25.9 µM [falling, single point]
[1]
  AC50: 29.1 µM [falling, single point]

## Cc1ccc(OCCC(=O)NNC(=O)c2ccccc2F)cc1
  cell number change: 16.6%
[1]
  AC50: 5.8 µM [rising, full curve, poor fit]

## COc1cc(OC)cc(C(=O)Nn2cc(C(=O)N3CCN(C)CC3)c3ccccc3c2=O)c1
  cell number change: -14.4%

## O=C(CCCSc1nc2ccccc2c(=O)[nH]1)c1ccc(F)cc1
  cell number change: 20.3%

## CC(C)(C)c1cc(NC(=O)Nc2ccccc2OC(F)(F)F)no1
  cell number change: -31.8%
[2]
  AC50: 10.3 µM [falling, partial curve]
[1]
  AC50: 13 µM [falling, partial curve, poor fit]

## COc1ccc(N2CCN(C(=O)CCNS(=O)(=O)c3ccc(Br)s3)CC2)cc1
[2]
  AC50: 3.26 µM [rising, single point]
[1]
  AC50: 2.91 µM [rising, partial curve]

## O=C(CSc1nc2ccccc2o1)N1CCCC1
[2]
  AC50: 0.92 µM [rising, partial curve, poor fit]
[1]
  AC50: 6.51 µM [rising, partial curve, poor fit]

## CC(=O)c1ccc(S(=O)(=O)N(C)CCCC(=O)N(C)Cc2c(F)cccc2Cl)cc1
  cell number change: 1.28%
[1]
  AC50: 20.6 µM [falling, partial curve]

## CC(=O)NCCn1c(SCc2cc(=O)n3cc(Cl)ccc3n2)nc2ccccc2c1=O
  cell number change: 0.903%

## CCOC(=O)C1=C(CC)Nc2ccccc2N=C1NC(=O)c1ccc(S(=O)(=O)N(C)C)cc1
  cell number change: 49.5%
[2]
  AC50: 1.84 µM [rising, full curve]

## CSCCC(NC(=O)c1ccccc1Br)C(=O)NNC(=O)c1csc(N2CCOCC2)n1 (stereo unspecified)
  cell number change: 0.109%
[1]
  AC50: 0.411 µM [falling, single point]

## O=C(CNC(=O)c1ccc(Br)o1)NNC(=O)c1cccc(Cl)c1
  cell number change: 20.3%

## CS(=O)(=O)c1ccc2nc(NC(=O)c3cccs3)sc2c1
[1]
  AC50: 1.3 µM [falling, full curve]

## NC(=O)C1CCN(C2CC(=O)N(c3cccc(F)c3)C2=O)CC1 (stereo unspecified)
  cell number change: -27.1%
[2]
  AC50: 0.0291 µM [falling, full curve, poor fit]
[1]
  AC50: 0.00461 µM [falling, full curve, poor fit]

## CCN(CC)S(=O)(=O)c1ccc(C)c(NC(=O)/C=C/c2cccs2)c1
  cell number change: -33.3%
[2]
  AC50: 0.326 µM [falling, full curve, poor fit]

## COc1ccc(C(=O)NCc2cn3cccc(C)c3n2)cc1OC
  cell number change: 33.1%
[2]
  AC50: 5.17 µM [rising, single point]
[1]
  AC50: 3.66 µM [rising, partial curve, poor fit]

## O=C1CSC(=S)N1c1cccnc1
  cell number change: 12.7%
[1]
  AC50: 0.00517 µM [falling, full curve, poor fit]

## COc1ccc(CCNC(=O)Cn2nnc(-c3ccccc3F)n2)cc1OC
  cell number change: -44.9%
[2]
  AC50: 11.6 µM [falling, partial curve]
[1]
  AC50: 11.6 µM [falling, partial curve]

## C/C(=C1/SC(N2CCOCC2)=NC1=O)c1ccc(Br)cc1
  cell number change: -15%
[1]
  AC50: 32.6 µM [falling, single point]

## C=CCn1c(=O)c2c(nc3n2CC(C)CN3CCc2ccccc2)n(C)c1=O (stereo unspecified)
  cell number change: 1.49%

## Clc1ccccc1OCCN1CCCCC1
  cell number change: -47.4%
[2]
  AC50: 23.1 µM [falling, single point]
[1]
  AC50: 29.1 µM [falling, single point]

## C=CCc1ccc(O)c(-c2ccc(O)c(CC=C)c2)c1
  cell number change: -47.4%
[2]
  AC50: 18.4 µM [falling, single point]
[1]
  AC50: 18.4 µM [falling, single point]

## COc1cc([C@@H]2c3cc4c(cc3[C@H](O)[C@H]3COC(=O)[C@H]23)OCO4)cc(OC)c1OC
  cell number change: -15.4%
[1]
  AC50: 2.06 µM [falling, single point]

## O=c1nc(/C=C/c2ccccc2C(F)(F)F)cc(C(F)(F)F)[nH]1
[1]
  AC50: 0.366 µM [falling, full curve]

## O=C(COC(=O)CCSc1ccccc1Cl)NCc1ccco1
  cell number change: -33.9%

## C=CCNC(=S)NNC(=O)c1ccc(Br)o1
  cell number change: -25.2%
[1]
  AC50: 4.61 µM [rising, partial curve]

## O=C(Nc1nc(-c2ccco2)cs1)c1ccccc1
  cell number change: 15%

## O=C(/C=C/c1ccccc1)N/C(=C\c1ccco1)C(=O)O
  cell number change: -19.1%
[1]
  AC50: 5.17 µM [falling, full curve]

## O=C(CS(=O)(=O)c1cn(Cc2ccc(Cl)cc2)c2ccccc12)N1CCOCC1
  cell number change: 11.2%
[1]
  AC50: 14.6 µM [rising, partial curve, poor fit]

## COc1cccc(-c2ccc3nnc(SCC(=O)N4CCOCC4)n3n2)c1
  cell number change: -75%
[2]
  AC50: 4.61 µM [falling, full curve]

## CS(=O)(=O)N(CC(=O)N1CCC(C(N)=O)CC1)C1CCCCC1
  cell number change: 2.48%
[1]
  AC50: 0.00651 µM [falling, full curve, poor fit]

## O=C1c2ccccc2C(=O)N1c1nc2nccc(-c3ccccc3)n2n1
  cell number change: 2.34%
[1]
  AC50: 0.103 µM [falling, full curve, poor fit]

## COC(=O)c1ccc2c(=O)n(CCCCCC(=O)NCCNC(C)=O)c(=O)[nH]c2c1
  cell number change: -48.6%

## CCOC(=O)c1nnn(-c2nonc2-n2cccc2)c1CN1CCC(C)CC1
  cell number change: -10.8%

## Cc1ccc(C(=O)NCCCNC(=O)c2ccc(C)nc2)cc1
  cell number change: 10.1%
[1]
  AC50: 0.206 µM [falling, single point]

## COC(=O)C1CCN(C(=O)c2oc3c(Cl)cc(C)cc3c2C)CC1
  cell number change: 6.11%
[2]
  AC50: 2.91 µM [rising, single point]

## Cc1onc(-c2ccccc2Cl)c1C(=O)N1CCN(c2ccc(F)cc2)CC1
  cell number change: 27.1%

## O=C(Nc1nc(-c2ccc3c(c2)OCO3)cs1)c1ccncc1
  cell number change: -33.7%
[2]
  AC50: 11.6 µM [falling, partial curve, poor fit]
[1]
  AC50: 16.4 µM [falling, single point]

## CNC(=O)COc1coc(CN2CCN(c3ccccc3F)CC2)cc1=O
  cell number change: -0.567%
[1]
  AC50: 16.4 µM [rising, single point]

## N/C(=N\OC(=O)Cc1ccccc1[N+](=O)[O-])c1ccncc1
  cell number change: 23.9%
[1]
  AC50: 18.4 µM [rising, single point]
